The values that follow come from article PMC5988678.

These are yes or no findings as the source states them, for the method shown. Binding seen in cells or lysates may run through a third protein. Binding calls can cover weak binding; strength is not graded here. Sequences can lack the tags named with a protein.

Assay [1] concerns the target T1, ER-Short β11 (β11 tag fused to the minimal Sac1 ER targeting sequence, 29 aa spacer).
T1 sequence: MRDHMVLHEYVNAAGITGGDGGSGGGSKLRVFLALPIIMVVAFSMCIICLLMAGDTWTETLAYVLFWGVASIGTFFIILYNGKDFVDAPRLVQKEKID
As to the kind of experiment: split reporter; split-GFP complementation after mosaic expression in D. rerio embryos, 24 hpf, fixed, confocal microscopy with mitochondrial (pTagRFP-mito) or ER (pDsRed2-ER) marker.

Assay [2] shares this target. The assay can be described thus: split reporter; split-GFP complementation (GFP1-10 with GFP β-strand 11) in co-transfected HeLa cells (SPLICS pairs also in HEK293), confocal microscopy 48-72 h after transfection.

On to “untargeted (cytosolic) non-fluorescent GFP1-10 (domain or fragment)”, for which the binding result in assay [1] and in assay [2] was “binds” throughout.
